Some of the results follow.

Amino acid sequences for entries named in this document (tags omitted). A change or cut given only in a name is not applied to a line headed by its entry.
UniProt Q96QD5: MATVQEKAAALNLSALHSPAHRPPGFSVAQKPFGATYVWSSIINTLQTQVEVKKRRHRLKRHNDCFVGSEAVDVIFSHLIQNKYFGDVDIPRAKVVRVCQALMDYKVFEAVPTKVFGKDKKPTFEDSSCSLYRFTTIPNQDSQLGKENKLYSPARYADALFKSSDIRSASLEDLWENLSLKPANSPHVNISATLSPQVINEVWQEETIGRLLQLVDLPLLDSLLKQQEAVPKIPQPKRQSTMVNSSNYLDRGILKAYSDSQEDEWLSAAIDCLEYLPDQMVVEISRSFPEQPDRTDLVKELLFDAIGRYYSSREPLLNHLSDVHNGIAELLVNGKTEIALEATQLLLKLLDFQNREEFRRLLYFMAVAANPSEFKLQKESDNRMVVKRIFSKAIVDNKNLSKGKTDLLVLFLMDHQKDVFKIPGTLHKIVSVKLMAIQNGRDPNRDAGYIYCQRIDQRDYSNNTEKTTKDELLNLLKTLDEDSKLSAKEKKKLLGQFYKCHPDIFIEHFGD
UniProt P00374: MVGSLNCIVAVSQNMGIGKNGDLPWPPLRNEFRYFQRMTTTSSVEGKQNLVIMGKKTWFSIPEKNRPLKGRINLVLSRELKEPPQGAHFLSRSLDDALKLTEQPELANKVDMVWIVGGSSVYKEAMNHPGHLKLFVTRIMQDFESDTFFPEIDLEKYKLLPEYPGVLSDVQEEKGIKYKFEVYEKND
UniProt Q8WVC6: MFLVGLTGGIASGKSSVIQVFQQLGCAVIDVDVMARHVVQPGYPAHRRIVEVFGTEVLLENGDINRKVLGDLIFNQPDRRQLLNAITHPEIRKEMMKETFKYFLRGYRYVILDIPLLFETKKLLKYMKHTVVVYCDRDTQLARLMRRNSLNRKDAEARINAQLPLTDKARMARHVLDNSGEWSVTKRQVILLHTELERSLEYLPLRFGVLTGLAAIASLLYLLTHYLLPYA
UniProt Q7Z478: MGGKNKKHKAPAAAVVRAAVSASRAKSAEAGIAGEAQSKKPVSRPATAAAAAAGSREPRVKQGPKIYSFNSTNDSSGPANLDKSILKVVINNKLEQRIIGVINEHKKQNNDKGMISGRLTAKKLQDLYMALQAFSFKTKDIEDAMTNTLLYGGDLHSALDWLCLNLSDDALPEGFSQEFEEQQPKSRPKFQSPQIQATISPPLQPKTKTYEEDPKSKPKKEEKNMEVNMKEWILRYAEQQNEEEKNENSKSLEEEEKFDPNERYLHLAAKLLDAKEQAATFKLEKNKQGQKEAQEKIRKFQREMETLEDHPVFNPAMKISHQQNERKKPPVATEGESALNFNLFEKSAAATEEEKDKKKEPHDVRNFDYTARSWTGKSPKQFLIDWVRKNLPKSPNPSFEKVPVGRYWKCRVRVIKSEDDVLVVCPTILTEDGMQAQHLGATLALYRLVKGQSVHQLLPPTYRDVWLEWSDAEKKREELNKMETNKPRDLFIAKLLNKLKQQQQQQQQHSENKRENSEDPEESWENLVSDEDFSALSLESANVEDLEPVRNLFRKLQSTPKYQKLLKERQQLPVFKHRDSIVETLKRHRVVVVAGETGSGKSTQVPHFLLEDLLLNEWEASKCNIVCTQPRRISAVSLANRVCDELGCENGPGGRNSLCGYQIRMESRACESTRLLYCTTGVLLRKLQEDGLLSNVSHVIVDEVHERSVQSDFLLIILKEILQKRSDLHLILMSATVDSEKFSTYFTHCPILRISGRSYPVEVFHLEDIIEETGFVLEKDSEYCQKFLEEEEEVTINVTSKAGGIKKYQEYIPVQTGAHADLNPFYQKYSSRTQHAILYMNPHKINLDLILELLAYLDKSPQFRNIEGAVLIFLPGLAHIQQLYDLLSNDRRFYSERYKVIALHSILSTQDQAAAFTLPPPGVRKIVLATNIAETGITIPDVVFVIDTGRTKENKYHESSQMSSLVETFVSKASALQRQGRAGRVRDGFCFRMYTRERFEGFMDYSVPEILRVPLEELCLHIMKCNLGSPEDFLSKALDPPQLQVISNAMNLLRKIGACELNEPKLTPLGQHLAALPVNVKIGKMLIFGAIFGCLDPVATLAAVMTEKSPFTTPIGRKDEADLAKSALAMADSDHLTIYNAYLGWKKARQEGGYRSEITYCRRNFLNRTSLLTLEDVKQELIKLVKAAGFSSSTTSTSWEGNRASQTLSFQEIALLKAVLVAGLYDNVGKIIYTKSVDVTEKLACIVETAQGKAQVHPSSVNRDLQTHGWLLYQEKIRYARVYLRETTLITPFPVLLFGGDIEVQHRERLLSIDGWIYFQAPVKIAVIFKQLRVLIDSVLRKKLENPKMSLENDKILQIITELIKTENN
UniProt Q6P3S1: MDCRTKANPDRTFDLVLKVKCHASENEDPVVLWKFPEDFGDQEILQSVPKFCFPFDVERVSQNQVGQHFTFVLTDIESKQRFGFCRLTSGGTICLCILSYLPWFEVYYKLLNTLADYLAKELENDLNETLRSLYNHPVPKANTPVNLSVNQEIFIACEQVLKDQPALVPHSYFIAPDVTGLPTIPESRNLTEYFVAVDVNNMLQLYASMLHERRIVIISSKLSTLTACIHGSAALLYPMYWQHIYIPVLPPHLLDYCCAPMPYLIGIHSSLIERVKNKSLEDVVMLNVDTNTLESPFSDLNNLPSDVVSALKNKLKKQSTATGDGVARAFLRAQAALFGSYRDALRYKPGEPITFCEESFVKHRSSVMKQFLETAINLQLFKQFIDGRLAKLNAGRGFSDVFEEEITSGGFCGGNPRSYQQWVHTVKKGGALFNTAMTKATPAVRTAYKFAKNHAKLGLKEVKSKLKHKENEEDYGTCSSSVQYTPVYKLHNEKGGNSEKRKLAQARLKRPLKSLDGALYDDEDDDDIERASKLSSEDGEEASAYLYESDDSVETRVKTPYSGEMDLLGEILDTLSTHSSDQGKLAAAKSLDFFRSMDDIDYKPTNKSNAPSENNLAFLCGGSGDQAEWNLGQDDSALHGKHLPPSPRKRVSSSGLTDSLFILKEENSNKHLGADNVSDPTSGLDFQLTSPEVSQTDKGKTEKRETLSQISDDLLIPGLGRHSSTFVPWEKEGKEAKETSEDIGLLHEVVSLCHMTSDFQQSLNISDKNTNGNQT
UniProt Q16643: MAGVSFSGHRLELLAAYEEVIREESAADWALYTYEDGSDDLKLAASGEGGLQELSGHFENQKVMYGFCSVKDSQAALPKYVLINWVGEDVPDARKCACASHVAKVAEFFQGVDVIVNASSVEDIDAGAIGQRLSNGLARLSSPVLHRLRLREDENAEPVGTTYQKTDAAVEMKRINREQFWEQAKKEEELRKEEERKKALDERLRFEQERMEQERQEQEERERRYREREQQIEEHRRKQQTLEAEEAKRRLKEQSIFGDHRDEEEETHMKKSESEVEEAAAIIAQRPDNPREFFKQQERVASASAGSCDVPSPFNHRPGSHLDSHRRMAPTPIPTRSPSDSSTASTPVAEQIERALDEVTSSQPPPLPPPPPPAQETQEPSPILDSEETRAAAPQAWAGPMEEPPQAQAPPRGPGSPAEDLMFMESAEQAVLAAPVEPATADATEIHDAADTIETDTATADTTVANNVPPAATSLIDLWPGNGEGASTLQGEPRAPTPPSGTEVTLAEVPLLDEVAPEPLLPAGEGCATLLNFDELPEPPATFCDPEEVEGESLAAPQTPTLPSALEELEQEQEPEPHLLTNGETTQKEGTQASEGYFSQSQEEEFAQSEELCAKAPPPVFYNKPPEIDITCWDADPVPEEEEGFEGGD
UniProt O76075: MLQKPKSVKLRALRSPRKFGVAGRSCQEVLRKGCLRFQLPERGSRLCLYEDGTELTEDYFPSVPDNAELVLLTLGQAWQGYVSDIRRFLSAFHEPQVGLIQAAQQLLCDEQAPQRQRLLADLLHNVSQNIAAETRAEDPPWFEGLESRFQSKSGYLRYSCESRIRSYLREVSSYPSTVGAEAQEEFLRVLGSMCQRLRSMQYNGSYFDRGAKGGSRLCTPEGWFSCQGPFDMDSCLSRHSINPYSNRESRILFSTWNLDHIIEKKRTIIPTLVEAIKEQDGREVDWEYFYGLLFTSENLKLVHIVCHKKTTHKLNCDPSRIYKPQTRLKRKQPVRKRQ
UniProt P04080: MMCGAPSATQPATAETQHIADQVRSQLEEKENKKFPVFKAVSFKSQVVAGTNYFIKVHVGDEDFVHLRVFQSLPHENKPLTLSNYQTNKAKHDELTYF
UniProt Q9UK59: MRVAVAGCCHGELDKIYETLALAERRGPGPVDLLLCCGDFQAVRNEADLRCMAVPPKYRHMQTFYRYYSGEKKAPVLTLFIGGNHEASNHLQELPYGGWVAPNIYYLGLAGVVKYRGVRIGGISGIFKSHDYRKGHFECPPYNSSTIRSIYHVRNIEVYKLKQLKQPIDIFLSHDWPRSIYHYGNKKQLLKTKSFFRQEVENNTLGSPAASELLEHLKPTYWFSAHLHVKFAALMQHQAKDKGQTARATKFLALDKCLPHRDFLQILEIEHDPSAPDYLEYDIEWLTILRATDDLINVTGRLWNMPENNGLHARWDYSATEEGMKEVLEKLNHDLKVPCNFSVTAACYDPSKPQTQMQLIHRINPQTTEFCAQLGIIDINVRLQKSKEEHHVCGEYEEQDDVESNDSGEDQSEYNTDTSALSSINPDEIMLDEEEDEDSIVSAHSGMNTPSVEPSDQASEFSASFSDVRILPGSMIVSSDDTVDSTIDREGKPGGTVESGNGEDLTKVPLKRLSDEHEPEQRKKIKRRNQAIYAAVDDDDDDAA
UniProt P36957: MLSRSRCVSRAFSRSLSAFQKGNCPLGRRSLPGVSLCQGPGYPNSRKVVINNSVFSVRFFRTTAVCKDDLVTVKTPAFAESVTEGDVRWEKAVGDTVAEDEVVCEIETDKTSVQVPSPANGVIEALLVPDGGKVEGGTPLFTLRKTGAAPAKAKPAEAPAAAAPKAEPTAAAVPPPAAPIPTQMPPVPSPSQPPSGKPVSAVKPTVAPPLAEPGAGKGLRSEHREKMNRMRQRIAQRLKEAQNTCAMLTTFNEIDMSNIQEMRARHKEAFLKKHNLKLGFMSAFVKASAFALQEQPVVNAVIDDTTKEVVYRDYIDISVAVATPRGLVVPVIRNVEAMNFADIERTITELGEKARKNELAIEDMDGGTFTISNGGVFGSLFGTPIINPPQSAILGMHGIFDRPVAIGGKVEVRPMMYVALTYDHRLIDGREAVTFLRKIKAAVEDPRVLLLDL
UniProt Q9H467: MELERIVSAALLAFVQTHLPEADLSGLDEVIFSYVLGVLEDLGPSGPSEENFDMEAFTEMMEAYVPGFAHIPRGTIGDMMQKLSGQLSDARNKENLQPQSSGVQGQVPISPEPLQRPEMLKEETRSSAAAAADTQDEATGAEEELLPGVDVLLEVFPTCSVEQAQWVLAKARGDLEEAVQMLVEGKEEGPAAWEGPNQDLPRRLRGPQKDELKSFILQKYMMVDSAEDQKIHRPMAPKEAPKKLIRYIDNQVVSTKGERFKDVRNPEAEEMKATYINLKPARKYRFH
UniProt Q9NXW2: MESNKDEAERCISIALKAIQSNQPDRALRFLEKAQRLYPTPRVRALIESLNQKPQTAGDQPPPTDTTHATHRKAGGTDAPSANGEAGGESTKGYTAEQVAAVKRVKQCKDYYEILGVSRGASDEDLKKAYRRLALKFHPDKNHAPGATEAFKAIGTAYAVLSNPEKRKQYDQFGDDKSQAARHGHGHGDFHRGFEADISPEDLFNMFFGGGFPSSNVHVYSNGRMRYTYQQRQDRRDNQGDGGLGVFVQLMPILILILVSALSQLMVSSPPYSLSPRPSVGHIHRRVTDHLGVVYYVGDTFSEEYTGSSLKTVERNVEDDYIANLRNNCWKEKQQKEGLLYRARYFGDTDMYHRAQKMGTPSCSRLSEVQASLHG
UniProt Q13217: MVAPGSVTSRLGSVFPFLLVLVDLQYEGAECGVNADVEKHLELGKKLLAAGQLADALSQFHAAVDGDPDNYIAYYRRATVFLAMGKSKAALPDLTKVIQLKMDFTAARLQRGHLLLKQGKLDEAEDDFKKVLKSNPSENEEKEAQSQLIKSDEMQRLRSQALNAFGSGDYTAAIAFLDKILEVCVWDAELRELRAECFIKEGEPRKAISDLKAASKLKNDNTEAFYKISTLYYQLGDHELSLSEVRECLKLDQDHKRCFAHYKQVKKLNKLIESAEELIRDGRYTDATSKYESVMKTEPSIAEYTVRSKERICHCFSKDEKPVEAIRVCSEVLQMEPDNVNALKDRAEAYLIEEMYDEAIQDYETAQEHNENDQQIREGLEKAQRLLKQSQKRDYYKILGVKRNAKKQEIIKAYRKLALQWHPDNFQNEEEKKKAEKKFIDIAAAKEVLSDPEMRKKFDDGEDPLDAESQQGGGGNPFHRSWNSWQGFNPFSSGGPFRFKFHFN
UniProt Q9P2X0: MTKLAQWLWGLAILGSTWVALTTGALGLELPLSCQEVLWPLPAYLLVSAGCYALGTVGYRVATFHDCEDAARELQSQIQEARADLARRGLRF

Compound in the experiment: COc1ccc(Cn2ccc3cc(C)c(C(=O)NO)cc32)cc1
Kind of experiment: dose-dependent thermal stabilisation call (2D-TPP, DLPTP, 10% FDR) (binary (1 = stabilised)); higher = stabilised by the compound. The settings on record: system: HL-60 intact cells; concentration range 0.04-10 µM. Here is the method:
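2D thermal proteome profiling in intact HL-60 cells treated with BRD-3811 (0, 0.04, 0.29, 2, 10 uM) for 90 min at 37 C, then heated 3 min at one of 12 temperatures (42-63.9 C). Soluble protein was quantified by TMT10 MS. The value is the DLPTP call of the paper: dose-dependent thermal stabilisation over all temperatures at 10% FDR (F-test of a dose-response against a flat model); one experiment, one call per tested protein.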
On to DEPDC7 (UniProt Q96QD5), for which the “dose-dependent thermal stabilisation call” value was inactive: 0. For CTSG (UniProt P08311), the “dose-dependent thermal stabilisation call” value was inactive: 0. Then DDX18 (UniProt Q9NVP1), with inactive: 0. The figure for CTCF (UniProt P49711) is inactive: 0. As to DNMBP (UniProt Q6XZF7), the “dose-dependent thermal stabilisation call” value was inactive: 0. With DHFR (UniProt P00374), the “dose-dependent thermal stabilisation call” value is inactive: 0. As for DGUOK (UniProt Q16854), the “dose-dependent thermal stabilisation call” value was inactive: 0. As for DPP9 (UniProt Q86TI2), the “dose-dependent thermal stabilisation call” value is inactive: 0. As to DCAKD (UniProt Q8WVC6), the “dose-dependent thermal stabilisation call” value was inactive: 0. For the target DHX29 (UniProt Q7Z478), the “dose-dependent thermal stabilisation call” value is inactive: 0. Take DAAM1 (UniProt Q9Y4D1): the “dose-dependent thermal stabilisation call” value is inactive: 0. On to DCXR (UniProt Q7Z4W1), for which the “dose-dependent thermal stabilisation call” value is inactive: 0.

For DENND1B (UniProt Q6P3S1), the “dose-dependent thermal stabilisation call” value was inactive: 0. Consider DECR2 (UniProt Q9NUI1), for which the “dose-dependent thermal stabilisation call” value is inactive: 0. For DDX11 (UniProt Q96FC9), the “dose-dependent thermal stabilisation call” value was inactive: 0. On to DBN1 (UniProt Q16643), for which the “dose-dependent thermal stabilisation call” value was inactive: 0.

With DIAPH1 (UniProt O60610), the “dose-dependent thermal stabilisation call” value is inactive: 0. With CTBP1 (UniProt Q13363), the “dose-dependent thermal stabilisation call” value was inactive: 0. As to DENND2C (UniProt Q68D51), the “dose-dependent thermal stabilisation call” value was inactive: 0. In the case of DFFB (UniProt O76075), the “dose-dependent thermal stabilisation call” value is inactive: 0. Then CSTB (UniProt P04080), with inactive: 0; and DBR1 (UniProt Q9UK59), with inactive: 0. For the target DCBLD1 (UniProt Q8N8Z6), the “dose-dependent thermal stabilisation call” value was inactive: 0. Consider DIAPH2 (UniProt O60879), for which the “dose-dependent thermal stabilisation call” value is inactive: 0. Turning to DCP2 (UniProt Q8IU60), the “dose-dependent thermal stabilisation call” value was inactive: 0. For the target DAGLB (UniProt Q8NCG7), the “dose-dependent thermal stabilisation call” value is inactive: 0. Take DLST (UniProt P36957): the “dose-dependent thermal stabilisation call” value was inactive: 0. CUEDC2 (UniProt Q9H467): the “dose-dependent thermal stabilisation call” value was inactive: 0.

For the target DHX57 (UniProt Q6P158), the “dose-dependent thermal stabilisation call” value was inactive: 0.

As to DAG1 (UniProt Q14118), the “dose-dependent thermal stabilisation call” value was inactive: 0. For the target DNAJB12 (UniProt Q9NXW2), the “dose-dependent thermal stabilisation call” value was inactive: 0.

On to DNAJC3 (UniProt Q13217), for which the “dose-dependent thermal stabilisation call” value was inactive: 0. Then DPM3 (UniProt Q9P2X0), with inactive: 0. As to CTSA (UniProt P10619), the “dose-dependent thermal stabilisation call” value was inactive: 0. Consider CYC1 (UniProt P08574), for which the “dose-dependent thermal stabilisation call” value was inactive: 0. Regarding DHX36 (UniProt Q9H2U1), the “dose-dependent thermal stabilisation call” value was inactive: 0.
